The list shows a part of the results.
What was measured:
Assay in all cases: log2 fold change, soluble protein after heating vs DMSO (PISA); higher = thermal stabilisation; K562 lysate, 10 uM; active = over 0.2 and 3.5 SD of the protein, either way, in both replicates (recomputed)
alvocidib = compound: CN1CC[C@H](c2c(O)cc(O)c3c(=O)cc(-c4ccccc4Cl)oc23)[C@H](O)C1 [alvocidib]
Outline: (§1)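 K562 pellets were dounce-homogenised in PBS pH 7.4 containing 1 mM MgCl2, and the crude extract, at 1 mg/mL protein, was exposed to 10 μM compound for 30 min. Aliquots were heated for 3 min across 48°C-58°C, pooled, brought to 0.5% NP-40 at 4°C and spun at 21,000xg for 90 min, with the supernatant taken as soluble protein. TMTpro 16plex LC-MS/MS with equalised channel sums quantified that protein. Values are log-two fold changes in thermal stability relative to solvent controls, taken from duplicates.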

By UniProt entry, the sequences of proteins in these tests, tags left out. Where a name states a change or a piece, a line headed by the entry shows the natural chain unless it says otherwise.
UniProt Q5T1J5: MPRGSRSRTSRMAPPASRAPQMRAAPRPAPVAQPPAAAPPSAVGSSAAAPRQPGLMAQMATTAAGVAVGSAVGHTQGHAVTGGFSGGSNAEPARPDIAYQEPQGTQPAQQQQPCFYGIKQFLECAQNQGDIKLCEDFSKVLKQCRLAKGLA
UniProt Q9Y259: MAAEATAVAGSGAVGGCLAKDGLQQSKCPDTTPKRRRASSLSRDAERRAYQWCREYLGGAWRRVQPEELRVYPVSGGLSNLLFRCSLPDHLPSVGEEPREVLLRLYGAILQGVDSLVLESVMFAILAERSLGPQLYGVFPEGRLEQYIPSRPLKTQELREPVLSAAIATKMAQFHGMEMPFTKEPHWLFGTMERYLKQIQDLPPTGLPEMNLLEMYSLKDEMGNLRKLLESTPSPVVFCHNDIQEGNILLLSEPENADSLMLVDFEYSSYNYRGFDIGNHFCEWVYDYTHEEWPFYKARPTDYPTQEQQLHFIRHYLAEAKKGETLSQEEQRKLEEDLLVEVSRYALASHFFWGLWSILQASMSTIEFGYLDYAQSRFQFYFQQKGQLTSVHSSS
UniProt Q9UQN3, whole entry, looked up: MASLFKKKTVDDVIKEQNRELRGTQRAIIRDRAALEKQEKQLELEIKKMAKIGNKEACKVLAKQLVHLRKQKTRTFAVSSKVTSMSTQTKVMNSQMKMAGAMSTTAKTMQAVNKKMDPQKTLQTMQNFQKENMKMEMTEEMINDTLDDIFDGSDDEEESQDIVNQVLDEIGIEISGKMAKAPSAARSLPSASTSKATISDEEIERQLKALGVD
UniProt Q8N1G2: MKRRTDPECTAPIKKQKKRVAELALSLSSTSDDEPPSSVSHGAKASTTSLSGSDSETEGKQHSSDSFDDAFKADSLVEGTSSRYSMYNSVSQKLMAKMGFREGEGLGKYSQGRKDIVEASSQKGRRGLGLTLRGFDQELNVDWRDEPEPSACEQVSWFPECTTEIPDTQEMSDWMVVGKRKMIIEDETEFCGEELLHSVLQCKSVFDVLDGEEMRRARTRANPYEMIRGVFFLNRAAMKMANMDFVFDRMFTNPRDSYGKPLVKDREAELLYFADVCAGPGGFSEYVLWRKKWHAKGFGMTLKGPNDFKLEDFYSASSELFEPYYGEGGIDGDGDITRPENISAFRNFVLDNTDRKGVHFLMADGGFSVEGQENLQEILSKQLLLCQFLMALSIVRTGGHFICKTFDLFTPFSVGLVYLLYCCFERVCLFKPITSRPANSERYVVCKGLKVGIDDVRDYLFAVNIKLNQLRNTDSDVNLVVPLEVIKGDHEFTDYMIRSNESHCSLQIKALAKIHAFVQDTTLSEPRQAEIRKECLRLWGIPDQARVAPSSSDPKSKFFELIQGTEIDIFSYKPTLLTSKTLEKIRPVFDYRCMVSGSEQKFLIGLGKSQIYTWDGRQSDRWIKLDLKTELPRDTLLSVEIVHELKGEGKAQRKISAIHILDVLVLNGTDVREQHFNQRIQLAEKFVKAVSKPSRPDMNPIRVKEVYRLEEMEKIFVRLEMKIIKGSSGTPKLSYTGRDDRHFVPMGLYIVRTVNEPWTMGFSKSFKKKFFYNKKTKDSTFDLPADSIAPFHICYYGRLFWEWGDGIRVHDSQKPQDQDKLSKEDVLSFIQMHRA
UniProt P10909, whole entry, looked up: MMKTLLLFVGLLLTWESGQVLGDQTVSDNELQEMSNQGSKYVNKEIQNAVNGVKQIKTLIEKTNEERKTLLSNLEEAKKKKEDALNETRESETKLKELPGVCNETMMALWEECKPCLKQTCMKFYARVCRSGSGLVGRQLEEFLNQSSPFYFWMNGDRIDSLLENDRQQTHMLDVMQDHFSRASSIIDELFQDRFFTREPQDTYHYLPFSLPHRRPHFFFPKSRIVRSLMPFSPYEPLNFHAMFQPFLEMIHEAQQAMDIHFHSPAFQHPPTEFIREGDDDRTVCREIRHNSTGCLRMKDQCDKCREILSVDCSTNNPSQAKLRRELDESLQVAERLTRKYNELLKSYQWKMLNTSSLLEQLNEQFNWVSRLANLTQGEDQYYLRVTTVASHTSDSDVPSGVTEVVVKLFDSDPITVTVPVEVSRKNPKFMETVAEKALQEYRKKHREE
UniProt Q7LBR1: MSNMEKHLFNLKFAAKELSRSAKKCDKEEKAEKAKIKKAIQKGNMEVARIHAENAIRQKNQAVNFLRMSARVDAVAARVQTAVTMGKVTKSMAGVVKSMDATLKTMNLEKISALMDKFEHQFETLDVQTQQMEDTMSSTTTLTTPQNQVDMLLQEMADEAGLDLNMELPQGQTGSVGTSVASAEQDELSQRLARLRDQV
UniProt Q86WJ1: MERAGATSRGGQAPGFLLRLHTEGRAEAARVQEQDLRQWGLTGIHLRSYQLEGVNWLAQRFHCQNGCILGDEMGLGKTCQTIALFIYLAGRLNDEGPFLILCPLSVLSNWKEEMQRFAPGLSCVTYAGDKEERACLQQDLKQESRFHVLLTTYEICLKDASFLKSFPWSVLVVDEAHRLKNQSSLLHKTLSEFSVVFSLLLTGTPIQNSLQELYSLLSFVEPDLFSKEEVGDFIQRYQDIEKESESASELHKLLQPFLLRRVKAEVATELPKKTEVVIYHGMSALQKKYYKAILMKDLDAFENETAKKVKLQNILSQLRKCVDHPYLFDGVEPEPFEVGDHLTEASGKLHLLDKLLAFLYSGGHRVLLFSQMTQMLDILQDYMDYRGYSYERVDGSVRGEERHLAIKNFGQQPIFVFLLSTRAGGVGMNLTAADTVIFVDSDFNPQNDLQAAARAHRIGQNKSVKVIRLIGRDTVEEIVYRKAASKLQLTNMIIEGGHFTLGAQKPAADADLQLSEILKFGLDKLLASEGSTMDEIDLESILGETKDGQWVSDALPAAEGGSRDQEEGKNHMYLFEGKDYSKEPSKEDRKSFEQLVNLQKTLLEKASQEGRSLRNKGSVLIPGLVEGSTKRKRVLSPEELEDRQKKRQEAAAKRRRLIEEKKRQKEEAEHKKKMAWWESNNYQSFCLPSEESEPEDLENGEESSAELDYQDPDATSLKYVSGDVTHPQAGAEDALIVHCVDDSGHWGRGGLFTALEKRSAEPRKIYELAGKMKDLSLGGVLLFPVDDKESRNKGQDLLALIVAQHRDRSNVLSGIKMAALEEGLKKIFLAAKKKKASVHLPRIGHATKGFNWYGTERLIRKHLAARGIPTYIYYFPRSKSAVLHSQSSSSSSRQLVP
UniProt P62633: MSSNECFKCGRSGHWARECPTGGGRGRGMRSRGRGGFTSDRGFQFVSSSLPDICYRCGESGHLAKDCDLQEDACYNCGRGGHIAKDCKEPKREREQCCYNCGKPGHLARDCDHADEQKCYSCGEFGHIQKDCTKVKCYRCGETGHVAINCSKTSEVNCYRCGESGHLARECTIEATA
UniProt O96017, whole entry, looked up: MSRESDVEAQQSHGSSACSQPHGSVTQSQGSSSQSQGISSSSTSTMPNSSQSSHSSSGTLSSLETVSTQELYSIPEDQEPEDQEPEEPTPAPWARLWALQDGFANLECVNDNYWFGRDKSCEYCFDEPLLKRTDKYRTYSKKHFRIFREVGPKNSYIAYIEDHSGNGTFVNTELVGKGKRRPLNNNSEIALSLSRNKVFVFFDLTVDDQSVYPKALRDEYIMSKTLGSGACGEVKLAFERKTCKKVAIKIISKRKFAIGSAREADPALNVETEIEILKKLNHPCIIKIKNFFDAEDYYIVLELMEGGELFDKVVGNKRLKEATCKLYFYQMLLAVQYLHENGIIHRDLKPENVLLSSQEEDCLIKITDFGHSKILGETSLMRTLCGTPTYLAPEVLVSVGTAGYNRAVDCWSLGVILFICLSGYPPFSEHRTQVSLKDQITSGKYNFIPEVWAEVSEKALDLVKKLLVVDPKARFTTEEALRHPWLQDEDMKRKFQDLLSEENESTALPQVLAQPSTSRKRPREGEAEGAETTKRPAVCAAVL
UniProt Q8IY22: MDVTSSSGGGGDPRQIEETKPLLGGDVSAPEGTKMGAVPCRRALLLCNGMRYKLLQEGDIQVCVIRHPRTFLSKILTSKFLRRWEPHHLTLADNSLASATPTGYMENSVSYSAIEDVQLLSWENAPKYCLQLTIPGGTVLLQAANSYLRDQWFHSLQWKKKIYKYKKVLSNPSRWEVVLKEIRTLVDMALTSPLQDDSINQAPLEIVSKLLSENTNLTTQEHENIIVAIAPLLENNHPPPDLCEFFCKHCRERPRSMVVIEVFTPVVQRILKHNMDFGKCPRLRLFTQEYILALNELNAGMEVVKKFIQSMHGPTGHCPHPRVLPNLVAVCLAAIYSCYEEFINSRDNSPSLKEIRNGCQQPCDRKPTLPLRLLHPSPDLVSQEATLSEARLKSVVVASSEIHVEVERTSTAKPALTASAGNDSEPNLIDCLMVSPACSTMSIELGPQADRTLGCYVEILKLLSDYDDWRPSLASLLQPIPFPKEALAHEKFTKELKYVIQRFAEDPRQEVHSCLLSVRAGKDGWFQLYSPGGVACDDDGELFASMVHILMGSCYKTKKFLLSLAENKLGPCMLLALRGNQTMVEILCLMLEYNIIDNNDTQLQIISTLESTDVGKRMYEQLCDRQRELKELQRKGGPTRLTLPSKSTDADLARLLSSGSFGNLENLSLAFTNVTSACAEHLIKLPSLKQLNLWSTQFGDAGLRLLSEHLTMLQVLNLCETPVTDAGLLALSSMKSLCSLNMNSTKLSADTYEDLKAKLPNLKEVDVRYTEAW
UniProt Q14839: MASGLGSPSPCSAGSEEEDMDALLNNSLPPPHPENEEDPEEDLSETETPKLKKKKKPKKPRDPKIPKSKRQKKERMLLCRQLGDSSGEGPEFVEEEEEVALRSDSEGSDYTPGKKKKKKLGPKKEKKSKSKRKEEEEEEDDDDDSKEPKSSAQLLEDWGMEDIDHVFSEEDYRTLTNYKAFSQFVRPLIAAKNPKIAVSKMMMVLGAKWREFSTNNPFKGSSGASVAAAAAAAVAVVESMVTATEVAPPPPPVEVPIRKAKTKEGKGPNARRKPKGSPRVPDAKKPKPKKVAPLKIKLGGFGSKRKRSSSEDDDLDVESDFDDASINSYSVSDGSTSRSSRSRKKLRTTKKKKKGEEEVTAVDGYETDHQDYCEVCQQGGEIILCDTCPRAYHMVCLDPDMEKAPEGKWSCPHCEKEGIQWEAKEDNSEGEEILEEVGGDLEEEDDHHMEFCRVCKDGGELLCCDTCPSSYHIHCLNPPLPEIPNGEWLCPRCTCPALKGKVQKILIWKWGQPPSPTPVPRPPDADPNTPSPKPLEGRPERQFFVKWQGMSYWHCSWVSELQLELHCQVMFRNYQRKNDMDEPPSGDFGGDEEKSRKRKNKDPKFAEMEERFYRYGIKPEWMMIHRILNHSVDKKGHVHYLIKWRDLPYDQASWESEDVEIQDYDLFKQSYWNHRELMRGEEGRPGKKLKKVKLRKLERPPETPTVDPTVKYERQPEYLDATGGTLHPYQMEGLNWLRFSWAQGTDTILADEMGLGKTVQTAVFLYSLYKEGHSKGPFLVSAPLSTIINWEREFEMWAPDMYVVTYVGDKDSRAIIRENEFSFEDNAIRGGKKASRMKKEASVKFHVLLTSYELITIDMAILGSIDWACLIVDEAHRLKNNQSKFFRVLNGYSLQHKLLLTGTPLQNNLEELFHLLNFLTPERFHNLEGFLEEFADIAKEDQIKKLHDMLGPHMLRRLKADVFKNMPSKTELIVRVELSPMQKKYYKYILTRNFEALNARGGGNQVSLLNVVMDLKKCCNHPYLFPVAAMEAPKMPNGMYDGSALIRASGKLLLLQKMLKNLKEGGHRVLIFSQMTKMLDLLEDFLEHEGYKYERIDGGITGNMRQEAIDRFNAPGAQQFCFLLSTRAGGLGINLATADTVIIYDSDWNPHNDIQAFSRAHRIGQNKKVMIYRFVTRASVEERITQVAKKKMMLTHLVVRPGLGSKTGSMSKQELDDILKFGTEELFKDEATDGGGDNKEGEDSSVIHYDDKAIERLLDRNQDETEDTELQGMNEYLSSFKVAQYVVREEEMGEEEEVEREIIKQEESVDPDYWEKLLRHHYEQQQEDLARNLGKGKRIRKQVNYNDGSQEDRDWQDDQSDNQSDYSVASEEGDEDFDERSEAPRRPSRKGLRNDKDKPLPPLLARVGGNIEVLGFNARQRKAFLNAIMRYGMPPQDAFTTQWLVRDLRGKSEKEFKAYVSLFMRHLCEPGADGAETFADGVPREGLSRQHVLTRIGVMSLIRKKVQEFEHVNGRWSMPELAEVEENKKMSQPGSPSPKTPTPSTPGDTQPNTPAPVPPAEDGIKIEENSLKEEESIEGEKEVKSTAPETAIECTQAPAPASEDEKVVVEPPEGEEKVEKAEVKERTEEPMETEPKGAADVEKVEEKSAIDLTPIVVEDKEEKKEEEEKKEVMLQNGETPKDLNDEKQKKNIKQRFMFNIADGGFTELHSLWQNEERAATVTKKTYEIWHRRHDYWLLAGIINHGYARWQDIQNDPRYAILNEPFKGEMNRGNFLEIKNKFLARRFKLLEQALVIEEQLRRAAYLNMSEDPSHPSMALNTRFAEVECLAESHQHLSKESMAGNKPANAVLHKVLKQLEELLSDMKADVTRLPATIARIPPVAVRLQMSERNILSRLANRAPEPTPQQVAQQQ

Tubastatin A = compound: CN1CCc2c(c3ccccc3n2Cc2ccc(C(=O)NO)cc2)C1 [Tubastatin A]
Outline: as §1

[1] = compound: CNC(=O)C1=CC=CC=C1NC2=NC(=NC=C2Cl)NC3=C(C=C(C=C3)N4CCOCC4)OC
Outline: as §1

defactinib = compound: CNC(=O)c1ccc(Nc2ncc(C(F)(F)F)c(NCc3nccnc3N(C)S(C)(=O)=O)n2)cc1 [defactinib]
Outline: as §1

[2] = compound: CNc1nc(-c2ccc3c(N)n[nH]c3c2)cc(N2C[C@@H](C(=O)NC3CCCCC3)CC[C@H]2C)n1
Outline: as §1

encorafenib = compound: COC(=O)N[C@@H](C)CNc1nccc(-c2cn(C(C)C)nc2-c2cc(Cl)cc(NS(C)(=O)=O)c2F)n1 [encorafenib]
Outline: as §1

[3] = compound: COC(=O)[C@H](CCSC)NC(=O)C1=C(C=C(C=C1)NC[C@H](CS)N)C2=CC=CC=C2
Outline: as §1

alisertib = compound: COc1cc(Nc2ncc3c(n2)-c2ccc(Cl)cc2C(c2c(F)cccc2OC)=NC3)ccc1C(=O)O [alisertib]
Outline: as §1

[4] = compound: COc1cc2nc(-c3cc(F)ccc3O)nc(N[C@@H]3CNC[C@H]3C(C)(C)O)c2cc1OC
Outline: as §1

gefitinib = compound: COc1cc2ncnc(Nc3ccc(F)c(Cl)c3)c2cc1OCCCN1CCOCC1 [gefitinib]
Outline: as §1

Target | log2 fold change (alvocidib) | log2 fold change (Tubastatin A) | log2 fold change [1] | log2 fold change (defactinib) | log2 fold change [2] | log2 fold change (encorafenib) | log2 fold change [3] | log2 fold change (alisertib) | log2 fold change [4] | log2 fold change (gefitinib)
CHCHD2P9 (UniProt Q5T1J5) | inactive: 0.026 | inactive: 0.061 | inactive: -0.01 | inactive: 0.108 | inactive: 0.008 | inactive: 0.021 | inactive: -0.086 | inactive: -0.003 | inactive: -0.007 | inactive: 0.131
CLASP1 (UniProt Q7Z460) | inactive: -0.057 | inactive: -0.032 | inactive: -0.005 | inactive: -0.037 | inactive: -0.006 | inactive: 0.058 | inactive: 0.009 | inactive: 0.036 | inactive: -0.001 | inactive: 0.018
CHKB (UniProt Q9Y259) | inactive: 0.009 | inactive: -0.049 | inactive: 0.047 | inactive: 0.013 | inactive: 0.075 | inactive: -0.046 | inactive: -0.006 | inactive: -0.018 | inactive: -0.016 | inactive: 0.087
CHMP2B (UniProt Q9UQN3) | inactive: 0.044 | inactive: 0.028 | inactive: 0.014 | inactive: 0.049 | inactive: -0.007 | inactive: 0.051 | inactive: -0.05 | inactive: 0.004 | inactive: -0.028 | inactive: -0.058
CLIC2 (UniProt O15247) | inactive: 0.002 | inactive: -0.002 | inactive: 0.034 | inactive: 0.03 | inactive: 0.024 | inactive: -0.016 | inactive: 0.018 | inactive: 0.02 | inactive: -0.014 | inactive: -0.038
CLASRP (UniProt Q8N2M8) | inactive: -0.013 | inactive: -0.052 | inactive: 0.032 | inactive: 0.004 | inactive: 0.016 | inactive: 0.026 | inactive: -0.067 | inactive: 0.014 | inactive: 0.001 | inactive: 0
CHAF1A (UniProt Q13111) | inactive: -0.003 | inactive: -0.089 | inactive: -0.019 | inactive: 0.02 | inactive: 0.038 | inactive: 0.003 | inactive: 0.063 | inactive: -0.107 | inactive: -0.01 | inactive: -0.065
CHMP1A (UniProt Q9HD42) | inactive: 0.004 | inactive: 0.017 | inactive: 0.026 | inactive: -0.003 | inactive: 0.074 | inactive: -0.004 | inactive: -0.05 | inactive: -0.013 | inactive: -0.017 | inactive: 0.031
CHCHD4 isoform 2 (UniProt Q8N4Q1) | inactive: -0.145 | inactive: 0.026 | inactive: 0.027 | inactive: -0.044 | inactive: 0.045 | inactive: 0.062 | inactive: -0.039 | inactive: 0.024 | inactive: 0.016 | inactive: -0.015
CLP1 (UniProt Q92989) | inactive: -0.103 | inactive: -0.179 | inactive: 0.004 | inactive: 0.071 | inactive: -0.037 | inactive: 0.02 | inactive: 0.023 | inactive: -0.002 | inactive: 0.031 | inactive: 0.033
CMTR1 (UniProt Q8N1G2) | inactive: -0.005 | inactive: -0.066 | inactive: 0.012 | inactive: 0.018 | inactive: -0.035 | inactive: 0.022 | inactive: 0.052 | inactive: -0.003 | inactive: 0 | inactive: 0.022
CHMP3 (UniProt Q9Y3E7) | inactive: -0.009 | inactive: 0.055 | inactive: 0.024 | inactive: -0.004 | inactive: 0.078 | inactive: -0.012 | inactive: -0.008 | inactive: 0.027 | inactive: 0.002 | inactive: -0.021
CIAO2A (UniProt Q9H5X1) | inactive: 0.034 | inactive: 0.04 | inactive: 0 | inactive: -0.002 | inactive: 0.109 | inactive: 0.026 | inactive: -0.052 | inactive: 0.089 | inactive: 0.009 | inactive: 0.088
CLINT1 isoform 3 (UniProt Q14677) | inactive: -0.003 | inactive: 0.053 | inactive: 0.051 | inactive: 0.019 | inactive: 0.115 | inactive: 0.128 | inactive: -0.012 | inactive: 0.035 | inactive: 0.015 | inactive: -0.024
CLSPN (UniProt Q9HAW4) | inactive: -0.033 | inactive: -0.037 | inactive: 0.041 | inactive: -0.012 | inactive: 0.115 | inactive: 0.09 | inactive: -0.11 | inactive: 0.019 | inactive: -0.013 | inactive: 0.045
CLU isoform 2 (UniProt P10909) | inactive: -0.008 |  |  |  |  |  |  |  |  | 

Target | log2 fold change (alvocidib) | log2 fold change (Tubastatin A) | log2 fold change [1] | log2 fold change (defactinib) | log2 fold change [2] | log2 fold change (encorafenib) | log2 fold change [3] | log2 fold change (alisertib) | log2 fold change [4] | log2 fold change (gefitinib)
CHMP4C (UniProt Q96CF2) | inactive: -0.099 | inactive: 0.039 | inactive: 0.029 | inactive: 0.036 | inactive: 0.01 | inactive: 0.056 | inactive: -0.036 | inactive: -0.016 | inactive: 0.057 | inactive: 0.001
CLTA (UniProt P09496) | inactive: 0.032 | inactive: 0.004 | inactive: -0.04 | inactive: 0.012 | inactive: -0.014 | inactive: -0.03 | inactive: 0.071 | inactive: -0.041 | inactive: -0.009 | inactive: -0.004
CHMP1B (UniProt Q7LBR1) | inactive: -0.014 | inactive: 0.016 | inactive: -0.023 | inactive: 0.002 | inactive: -0.003 | inactive: 0 | inactive: -0.022 | inactive: 0.07 | inactive: 0.049 | inactive: 0.064
CLPTM1 (UniProt O96005) | inactive: -0.086 | inactive: -0.103 | inactive: -0.007 | inactive: -0.02 | inactive: -0.005 | inactive: 0.004 | inactive: 0.006 | inactive: 0.032 | inactive: -0.025 | inactive: 0.031
CHD1 (UniProt O14646) | inactive: 0.023 | inactive: -0.017 | inactive: 0.015 | inactive: 0.004 | inactive: -0.044 | inactive: 0.035 | inactive: 0.204 | inactive: -0.032 | inactive: 0.052 | inactive: 0.039
CHAF1B (UniProt Q13112) | inactive: -0.023 | inactive: 0.017 | inactive: 0.007 | inactive: -0.06 | inactive: -0.003 | inactive: 0.018 | inactive: -0.097 | inactive: 0.048 | inactive: 0.003 | inactive: 0.029
CHIC2 (UniProt Q9UKJ5) | inactive: 0.018 | inactive: 0.061 | inactive: 0.138 | inactive: 0.125 | inactive: 0.013 | inactive: -0.022 | inactive: -0.053 | inactive: -0.105 | inactive: -0.113 | inactive: 0.084
CHD1L (UniProt Q86WJ1) | inactive: 0.012 | inactive: -0.16 | inactive: -0.003 | inactive: -0.001 | inactive: -0.025 | inactive: 0.013 | inactive: 0.114 | inactive: 0.018 | inactive: -0.002 | inactive: 0.006
CLIP1 isoform 1 (UniProt P30622) | inactive: -0.005 | inactive: 0.038 | inactive: 0.014 | inactive: -0.006 | inactive: -0.008 | inactive: 0.003 | inactive: -0.03 | inactive: -0.016 | inactive: 0.014 | inactive: 0.001
CLCC1 (UniProt Q96S66) | inactive: -0.041 | inactive: -0.011 | inactive: 0.02 | inactive: 0.003 | inactive: -0.026 | inactive: 0.028 | inactive: -0.078 | inactive: -0.014 | inactive: -0.008 | inactive: 0.009
CNBP isoform 4 (UniProt P62633) | inactive: 0 | inactive: 0.135 | inactive: -0.022 | inactive: 0.011 | inactive: 0.155 | inactive: 0.026 | inactive: -0.106 | inactive: -0.033 | inactive: -0.058 | inactive: -0.295
CHMP2A (UniProt M0R1T5) | inactive: 0.121 |  |  |  |  |  |  |  |  | 
CHPT1 (UniProt Q8WUD6) | inactive: 0.297 | inactive: 0.013 |  |  |  |  |  |  |  | 
CHEK2 (UniProt O96017) | inactive: 0.093 | inactive: -0.007 | active: 0.207 | inactive: 0.022 | inactive: -0.085 | inactive: -0.022 | inactive: 0.092 | inactive: 0 | inactive: -0.052 | inactive: 0.09
CMIP (UniProt Q8IY22) | inactive: 0.002 | inactive: -0.161 | inactive: 0.001 | inactive: 0.061 | inactive: -0.015 | inactive: 0.078 | inactive: 0.025 | inactive: -0.012 | inactive: -0.016 | inactive: 0.007
CHD4 isoform 2 (UniProt Q14839) | inactive: -0.004 | inactive: -0.069 | inactive: -0.014 | inactive: 0.007 | inactive: 0.017 | inactive: 0.013 | inactive: 0.087 | inactive: 0.016 | inactive: -0.007 | inactive: -0.014

Given with tabs: entries from further up
Target	log2 fold change (alvocidib)	log2 fold change (Tubastatin A)	log2 fold change [1]	log2 fold change (defactinib)	log2 fold change [2]	log2 fold change (encorafenib)	log2 fold change [3]	log2 fold change (alisertib)	log2 fold change [4]	log2 fold change (gefitinib)
CHMP3 (UniProt Q9Y3E7)	inactive: -0.009	inactive: 0.055	inactive: 0.024	inactive: -0.004	inactive: 0.078	inactive: -0.012	inactive: -0.008	inactive: 0.027	inactive: 0.002	inactive: -0.021
CLSPN (UniProt Q9HAW4)	inactive: -0.033	inactive: -0.037	inactive: 0.041	inactive: -0.012	inactive: 0.115	inactive: 0.09	inactive: -0.11	inactive: 0.019	inactive: -0.013	inactive: 0.045
